This is one part of the list. The signal is at background level for most entries.
Legend:
Assay in all cases: fluorescence intensity of antibody binding to polysaccharide-coupled beads; higher = stronger binding
[1] = biological target: pneumococcal polysaccharide Pn39
[2] = biological target: pneumococcal polysaccharide Pn4
[3] = biological target: pneumococcal polysaccharide Pn40
[4] = biological target: pneumococcal polysaccharide Pn41A
[5] = biological target: pneumococcal polysaccharide Pn41F
[6] = biological target: pneumococcal polysaccharide Pn42
[7] = biological target: pneumococcal polysaccharide Pn43
[8] = biological target: pneumococcal polysaccharide Pn44
[9] = biological target: pneumococcal polysaccharide Pn45
[10] = biological target: pneumococcal polysaccharide Pn46
[11] = biological target: pneumococcal polysaccharide Pn47A
[12] = biological target: pneumococcal polysaccharide Pn47F
[13] = biological target: pneumococcal polysaccharide Pn48
[14] = biological target: pneumococcal polysaccharide Pn5
[15] = biological target: pneumococcal polysaccharide Pn6A
[16] = biological target: pneumococcal polysaccharide Pn6B
[17] = biological target: pneumococcal polysaccharide Pn6C
[18] = biological target: pneumococcal polysaccharide Pn6D
[19] = biological target: pneumococcal polysaccharide Pn7A
[20] = biological target: pneumococcal polysaccharide Pn7B
[21] = biological target: pneumococcal polysaccharide Pn7C
[22] = biological target: pneumococcal polysaccharide Pn7F
[23] = biological target: pneumococcal polysaccharide Pn8
[24] = biological target: pneumococcal polysaccharide Pn9A
[25] = biological target: pneumococcal polysaccharide Pn9L
[26] = biological target: pneumococcal polysaccharide Pn9N
[27] = biological target: pneumococcal polysaccharide Pn9V
[28] = antibody concentration 81.7561 ng/mL
[29] = antibody concentration 437.17 ng/mL
[30] = antibody concentration 2337.65 ng/mL
[31] = antibody concentration 0.1 ng/mL
[32] = antibody concentration 0.534724 ng/mL
[33] = antibody concentration 2.8593 ng/mL
[34] = antibody concentration 15.2894 ng/mL

Measured: fluorescence intensity

B1: 3S41.1 (protein)
chain 1: EVQLVESGGGLVQPGGSLRLSCATSGFTFRNYWMYWFRQAPGKGLDWVSSISDSSSNTFYSDSVKGRFTISRDNAKNTLYLQMNSLRAEDTAVYYCARRPIAAATGVYWYFDLWGPGTPITVSS
chain 2: EIVMTQSPATLSLSPGERATLSCRASQNIGSNLAWYQQKPGRAPKLLIYDASSRATGIPDRFSASGSGTDFTLTISSLEPEDVGVYYCQQYNNWKIFGPGTKLEIK
11 MFI: [6]; [32] | [6]; [29] | [9]; [32] | [9]; [34] | [9]; [28]
18 MFI: [17]; [31] | [18]; [33] | [21]; [30]
15 MFI: [5]; [29] | [6]; [30] | [7]; [33] | [17]; [32] | [21]; [33] | [22]; [28] | [26]; [33] | [26]; [34] | [27]; [32]
15.5 MFI: [3]; [33] | [7]; [31] | [11]; [31] | [11]; [33] | [12]; [30] | [20]; [28] | [22]; [32] | [22]; [33] | [22]; [34]
8.75 MFI: [14]; [34]
27.5 MFI: [10]; [30] | [13]; [30] | [15]; [30] | [23]; [30]
9.5 MFI: [14]; [33]
19.2 MFI: [16]; [33]
18.5 MFI: [1]; [28] | [2]; [28] | [2]; [29] | [3]; [28] | [16]; [31] | [18]; [34] | [24]; [33]
23 MFI: [4]; [33] | [10]; [31] | [10]; [32] | [13]; [29]
16.2 MFI: [3]; [34]
14.5 MFI: [5]; [30] | [21]; [34]
18.2 MFI: [17]; [30] | [24]; [32] | [25]; [28] | [25]; [29]
26.5 MFI: [4]; [30]
22.5 MFI: [13]; [28] | [15]; [29] | [23]; [34]
11.8 MFI: [6]; [34]
26 MFI: [8]; [31] | [8]; [34] | [22]; [30]
8.5 MFI: [14]; [31] | [14]; [32] | [14]; [28]
23.8 MFI: [4]; [29] | [15]; [32]
21 MFI: [3]; [30] | [17]; [34] | [19]; [32] | [23]; [33]
20 MFI: [2]; [34] | [16]; [32] | [16]; [28] | [19]; [31] | [19]; [33] | [19]; [28] | [24]; [28]
23.5 MFI: [4]; [28] | [10]; [33] | [10]; [28] | [13]; [31] | [23]; [31] | [23]; [29]
22.2 MFI: [16]; [30]
13 MFI: [9]; [30] | [12]; [33] | [12]; [29]
13.5 MFI: [5]; [31] | [14]; [30]
23.2 MFI: [13]; [33]
11.2 MFI: [9]; [33]
27 MFI: [7]; [30]
28 MFI: [8]; [30]
20.5 MFI: [1]; [30] | [2]; [33] | [15]; [33] | [16]; [29] | [24]; [34]
15.8 MFI: [27]; [31]
19.5 MFI: [2]; [31] | [16]; [34] | [20]; [30] | [24]; [29]
24.5 MFI: [4]; [31] | [8]; [29] | [10]; [29]
22.8 MFI: [13]; [32] | [15]; [31]
12.8 MFI: [5]; [32]
14 MFI: [22]; [31]
25.5 MFI: [8]; [32] | [15]; [28]
19.8 MFI: [25]; [30]
16.5 MFI: [3]; [31] | [3]; [29] | [11]; [28] | [11]; [29] | [17]; [29] | [20]; [31] | [20]; [32] | [20]; [29] | [21]; [28] | [25]; [33] | [26]; [28]
12.5 MFI: [5]; [33] | [5]; [34] | [5]; [28] | [12]; [32]
21.2 MFI: [19]; [34] | [23]; [32]
24 MFI: [2]; [30] | [4]; [32] | [4]; [34]
20.2 MFI: [13]; [34] | [19]; [29]
18.8 MFI: [26]; [30]
25 MFI: [8]; [33] | [8]; [28]
19 MFI: [1]; [29] | [2]; [32] | [18]; [30] | [24]; [31]
17.5 MFI: [7]; [29] | [21]; [31] | [25]; [32]
17.2 MFI: [11]; [30]
21.5 MFI: [15]; [34] | [23]; [28] | [24]; [30]
33 MFI: [19]; [30]
10.5 MFI: [6]; [33] | [12]; [28] | [14]; [29]
16 MFI: [3]; [32] | [7]; [32] | [7]; [34] | [7]; [28] | [18]; [32] | [18]; [28] | [20]; [34] | [21]; [29] | [25]; [31] | [26]; [31]
11.5 MFI: [6]; [28] | [9]; [31]
10 MFI: [9]; [29]
24.8 MFI: [10]; [34]
12 MFI: [6]; [31] | [12]; [31] | [12]; [34]
17 MFI: [11]; [32] | [11]; [34] | [17]; [33] | [17]; [28] | [18]; [31] | [18]; [29] | [20]; [33] | [21]; [32] | [22]; [29] | [25]; [34] | [26]; [32] | [26]; [29]

— the supplement of paper PMC11438910
